# Measurements reported in PubChem BioAssay AID1259307 (Sanger Institute, 2017).
# Purpose: 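Identify kinases needed for SW620 growth or enhancing BYL719, cetuximab or trametinib effects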 (primary screen)
# Cells: SW620 colorectal cancer cells
# Reagents: siRNA pool against human genes
# Conditions: anchor drugs BYL719 at 1 µM, cetuximab at 5 µg/ml or trametinib at 10 nM, each beside a DMSO vehicle arm
# Measurement: 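Per-well viability versus non-targeting control pool, replicate-averaged, robust z-score from controls; synergy scores for BYL719 1 µM, cetuximab 5 µg/ml, trametinib 10 nM against DMSO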
# Reading the numbers: viability robust z-score, no drug and viability vs control, no drug: higher = more viable cells; synergy score with BYL719: higher = stronger synthetic lethality with the drug
# Call rule: 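a knock-down counts as lethal alone if its drug-free robust viability z-score is lower than -3, regardless of synergy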
# Calls: active = essential (lethal alone); inactive = no change alone
# This is a random part of 794 reagents. 15 of all reagents (1.9%) count as active. 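Calls reflect lethality without any drug; synergy scores did not enter the calls.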 No viability above 1 is reported: the scale is capped. Not all columns of the deposit are shown. No sequences are given here. Not stated in the record: the amount of reagent, the time to read-out.
target gene,"viability robust z-score, no drug","viability vs control, no drug",synergy score with BYL719,activity call
RIPK1 (GeneID 8737),0.736,1,-0.0231,inactive
TBCK (GeneID 93627),0.17,0.948,-0.0822,inactive
ERBB3 (GeneID 2065),0.736,1,0.0421,inactive
TP53BP1 (GeneID 7158),0.736,1,-0.0474,inactive
PRKG1 (GeneID 5592),0.435,0.972,-0.0349,inactive
DTYMK (GeneID 1841),0.222,0.953,-0.0264,inactive
SOX9 (GeneID 6662),0.678,0.995,0.112,inactive
PDGFRL (GeneID 5157),-1.63,0.782,-0.142,inactive
PHKG2 (GeneID 5261),0.736,1,-0.0287,inactive
PIK3R5 (GeneID 23533),-0.122,0.921,-0.155,inactive
WNK1 (GeneID 65125),0.736,1,-0.00923,inactive
ETNK1 (GeneID 55500),0.736,1,0.0212,inactive
NLK (GeneID 51701),-1.32,0.811,-0.0802,inactive
PRKAR2B (GeneID 5577),0.373,0.966,0.0105,inactive
NUP98 (GeneID 4928),-4.49,0.518,-0.0748,active
STKLD1 (GeneID 169436),0.104,0.942,0.132,inactive
HCK (GeneID 3055),0.627,0.99,-0.00325,inactive
PAPSS1 (GeneID 9061),0.736,1,-0.0217,inactive
CKS2 (GeneID 1164),0.0624,0.938,-0.0302,inactive
MAPK8 (GeneID 5599),0.736,1,-0.0334,inactive
PBK (GeneID 55872),0.647,0.992,-0.0911,inactive
TCF7L2 (GeneID 6934),0.718,0.998,0.0876,inactive
RELA (GeneID 5970),0.619,0.989,-0.0773,inactive
MAP3K10 (GeneID 4294),0.736,1,-0.0919,inactive
SRMS (GeneID 6725),-0.484,0.887,-0.0171,inactive
GALK1 (GeneID 2584),-1.55,0.789,-0.145,inactive
ITSN1 (GeneID 6453),-2.14,0.734,-0.128,inactive
ITPK1 (GeneID 3705),-0.66,0.871,-0.209,inactive
MAPK11 (GeneID 5600),0.736,1,0.0402,inactive
THNSL1 (GeneID 79896),0.736,1,-0.0223,inactive
RPS6KB2 (GeneID 6199),0.593,0.987,-0.0794,inactive
CKM (GeneID 1158),0.736,1,0.113,inactive
MAP2K7 (GeneID 5609),0.554,0.983,-0.0374,inactive
TRIO (GeneID 7204),-1.96,0.751,-0.149,inactive
PI4KB (GeneID 5298),-1.45,0.798,-0.213,inactive
PIK3C3 (GeneID 5289),0.736,1,-0.0675,inactive
PRKAG1 (GeneID 5571),-0.105,0.922,-0.0687,inactive
PIK3CA (GeneID 5290),0.28,0.958,0.0592,inactive
NME2 (GeneID 4831),-0.729,0.865,-0.105,inactive
PTPN11 (GeneID 5781),0.164,0.947,-0.00506,inactive
HSPB8 (GeneID 26353),-0.135,0.92,-0.0203,inactive
NRK (GeneID 203447),0.736,1,-0.0489,inactive
IRAK2 (GeneID 3656),0.695,0.996,-0.0488,inactive
TSKS (GeneID 60385),0.736,1,-0.0919,inactive
DLG1 (GeneID 1739),0.715,0.998,0.0721,inactive
ROCK2 (GeneID 9475),-0.188,0.915,0.0674,inactive
ACVR2A (GeneID 92),0.368,0.966,-0.000925,inactive
RIPK3 (GeneID 11035),0.736,1,-0.068,inactive
CDK16 (GeneID 5127),0.235,0.954,-0.023,inactive
RPS6KA3 (GeneID 6197),0.736,1,-0.0516,inactive
